Laboratory results from the supplement of paper PMC5836539.
± gives the standard deviation of the averaged measurements. Repeats in this data set agree poorly, so a single value says little.

Chains of the proteins cited; added tags and fusions are not shown. Lines headed by an entry give the natural chain unless they say otherwise; changes in a name come on top.
UniProt Q9BV36: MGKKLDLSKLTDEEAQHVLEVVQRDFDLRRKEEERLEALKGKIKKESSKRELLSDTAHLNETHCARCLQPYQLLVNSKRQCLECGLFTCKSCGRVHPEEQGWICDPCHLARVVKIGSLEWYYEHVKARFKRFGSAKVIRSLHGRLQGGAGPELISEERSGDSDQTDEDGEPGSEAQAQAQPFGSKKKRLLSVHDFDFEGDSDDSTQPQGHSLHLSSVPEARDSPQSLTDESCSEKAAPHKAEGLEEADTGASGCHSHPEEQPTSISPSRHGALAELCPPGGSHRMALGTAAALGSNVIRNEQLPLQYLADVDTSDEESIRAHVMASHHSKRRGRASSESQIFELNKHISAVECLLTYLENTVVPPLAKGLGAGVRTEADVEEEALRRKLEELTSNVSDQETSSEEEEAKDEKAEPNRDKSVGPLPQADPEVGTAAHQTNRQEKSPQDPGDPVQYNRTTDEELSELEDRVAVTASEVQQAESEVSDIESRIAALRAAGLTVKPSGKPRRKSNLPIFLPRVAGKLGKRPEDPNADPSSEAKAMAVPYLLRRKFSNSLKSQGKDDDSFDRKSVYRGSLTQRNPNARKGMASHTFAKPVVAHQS
UniProt Q9BW85: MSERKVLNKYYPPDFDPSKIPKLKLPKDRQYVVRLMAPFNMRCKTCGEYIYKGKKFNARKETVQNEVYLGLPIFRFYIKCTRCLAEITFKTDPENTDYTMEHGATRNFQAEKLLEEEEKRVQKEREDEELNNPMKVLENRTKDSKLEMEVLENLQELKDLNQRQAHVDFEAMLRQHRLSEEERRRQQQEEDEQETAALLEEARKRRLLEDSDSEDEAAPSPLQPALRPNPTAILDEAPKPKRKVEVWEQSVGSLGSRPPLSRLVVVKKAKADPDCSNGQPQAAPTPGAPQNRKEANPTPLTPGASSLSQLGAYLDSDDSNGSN
UniProt Q9BZQ8: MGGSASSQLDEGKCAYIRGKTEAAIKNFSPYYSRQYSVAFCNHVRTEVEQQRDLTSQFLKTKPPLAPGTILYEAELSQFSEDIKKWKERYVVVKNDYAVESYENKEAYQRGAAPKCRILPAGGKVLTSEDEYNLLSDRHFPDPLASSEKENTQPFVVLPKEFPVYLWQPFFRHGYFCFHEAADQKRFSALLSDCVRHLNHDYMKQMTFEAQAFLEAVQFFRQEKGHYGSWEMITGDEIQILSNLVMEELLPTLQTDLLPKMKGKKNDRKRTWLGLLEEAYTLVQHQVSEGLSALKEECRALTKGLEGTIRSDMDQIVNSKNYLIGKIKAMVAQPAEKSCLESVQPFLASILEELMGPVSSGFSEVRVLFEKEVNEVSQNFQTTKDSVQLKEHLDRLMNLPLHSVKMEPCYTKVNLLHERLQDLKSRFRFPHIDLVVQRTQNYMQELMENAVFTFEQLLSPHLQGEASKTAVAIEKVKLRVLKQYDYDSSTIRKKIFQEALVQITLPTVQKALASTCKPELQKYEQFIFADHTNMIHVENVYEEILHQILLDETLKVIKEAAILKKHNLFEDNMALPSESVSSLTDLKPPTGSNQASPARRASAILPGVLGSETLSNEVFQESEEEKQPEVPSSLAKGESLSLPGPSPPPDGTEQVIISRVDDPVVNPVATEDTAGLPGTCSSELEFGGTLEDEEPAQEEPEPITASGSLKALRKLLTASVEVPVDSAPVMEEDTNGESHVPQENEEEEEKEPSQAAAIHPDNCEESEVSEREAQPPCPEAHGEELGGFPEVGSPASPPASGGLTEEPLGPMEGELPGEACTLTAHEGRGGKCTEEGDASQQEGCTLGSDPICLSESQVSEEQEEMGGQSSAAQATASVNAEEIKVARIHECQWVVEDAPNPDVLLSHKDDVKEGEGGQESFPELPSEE
UniProt Q9H0G5: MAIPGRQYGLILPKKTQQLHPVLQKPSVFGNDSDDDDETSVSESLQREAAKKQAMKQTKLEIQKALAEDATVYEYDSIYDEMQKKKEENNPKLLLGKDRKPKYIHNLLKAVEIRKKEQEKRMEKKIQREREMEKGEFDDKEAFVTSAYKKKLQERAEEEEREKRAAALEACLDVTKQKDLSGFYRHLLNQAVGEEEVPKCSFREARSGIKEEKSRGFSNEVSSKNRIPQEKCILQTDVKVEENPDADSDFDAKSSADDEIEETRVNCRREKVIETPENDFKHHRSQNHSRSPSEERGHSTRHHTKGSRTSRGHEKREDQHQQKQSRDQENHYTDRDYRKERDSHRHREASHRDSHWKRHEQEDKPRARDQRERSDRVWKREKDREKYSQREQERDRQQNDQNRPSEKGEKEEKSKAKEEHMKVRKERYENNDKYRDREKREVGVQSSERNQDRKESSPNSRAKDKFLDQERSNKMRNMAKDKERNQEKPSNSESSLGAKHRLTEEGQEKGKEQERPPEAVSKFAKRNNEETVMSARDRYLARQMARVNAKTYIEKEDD
UniProt Q9H6R7: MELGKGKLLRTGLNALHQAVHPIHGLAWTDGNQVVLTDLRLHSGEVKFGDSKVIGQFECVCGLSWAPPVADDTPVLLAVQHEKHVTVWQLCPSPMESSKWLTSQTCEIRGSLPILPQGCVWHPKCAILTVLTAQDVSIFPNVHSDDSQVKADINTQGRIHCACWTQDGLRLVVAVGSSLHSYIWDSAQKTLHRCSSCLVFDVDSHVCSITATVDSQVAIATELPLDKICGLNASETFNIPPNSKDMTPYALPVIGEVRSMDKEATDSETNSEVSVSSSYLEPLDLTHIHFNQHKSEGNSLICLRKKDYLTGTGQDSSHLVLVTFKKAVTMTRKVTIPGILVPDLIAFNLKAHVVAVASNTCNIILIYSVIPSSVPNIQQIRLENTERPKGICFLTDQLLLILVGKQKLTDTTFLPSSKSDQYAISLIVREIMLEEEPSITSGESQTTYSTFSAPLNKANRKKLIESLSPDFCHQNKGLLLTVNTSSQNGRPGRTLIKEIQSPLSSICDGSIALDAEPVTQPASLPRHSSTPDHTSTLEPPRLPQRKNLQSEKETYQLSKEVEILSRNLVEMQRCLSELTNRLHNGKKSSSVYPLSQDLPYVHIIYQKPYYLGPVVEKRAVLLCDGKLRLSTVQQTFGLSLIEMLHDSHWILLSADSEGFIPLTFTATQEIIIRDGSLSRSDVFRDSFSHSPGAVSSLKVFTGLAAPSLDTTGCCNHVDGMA
UniProt Q9H6T3, whole entry, looked up: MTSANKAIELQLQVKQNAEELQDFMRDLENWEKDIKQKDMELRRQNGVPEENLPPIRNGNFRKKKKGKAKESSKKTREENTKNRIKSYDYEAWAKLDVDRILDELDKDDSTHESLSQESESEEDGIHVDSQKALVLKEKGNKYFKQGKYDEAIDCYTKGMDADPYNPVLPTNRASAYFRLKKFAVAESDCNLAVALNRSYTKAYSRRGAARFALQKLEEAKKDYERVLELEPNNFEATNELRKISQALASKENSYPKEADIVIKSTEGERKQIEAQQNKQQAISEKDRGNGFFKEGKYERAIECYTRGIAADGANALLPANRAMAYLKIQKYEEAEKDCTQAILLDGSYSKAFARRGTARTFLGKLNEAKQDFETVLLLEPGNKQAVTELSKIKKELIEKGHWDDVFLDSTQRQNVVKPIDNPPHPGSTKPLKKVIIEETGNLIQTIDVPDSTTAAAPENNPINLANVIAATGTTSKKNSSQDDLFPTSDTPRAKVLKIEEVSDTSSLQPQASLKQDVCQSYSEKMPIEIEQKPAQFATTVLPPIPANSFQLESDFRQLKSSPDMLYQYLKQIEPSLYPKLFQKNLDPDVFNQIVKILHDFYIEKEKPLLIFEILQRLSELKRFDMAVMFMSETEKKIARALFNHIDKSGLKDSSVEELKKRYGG
UniProt Q9NRY4: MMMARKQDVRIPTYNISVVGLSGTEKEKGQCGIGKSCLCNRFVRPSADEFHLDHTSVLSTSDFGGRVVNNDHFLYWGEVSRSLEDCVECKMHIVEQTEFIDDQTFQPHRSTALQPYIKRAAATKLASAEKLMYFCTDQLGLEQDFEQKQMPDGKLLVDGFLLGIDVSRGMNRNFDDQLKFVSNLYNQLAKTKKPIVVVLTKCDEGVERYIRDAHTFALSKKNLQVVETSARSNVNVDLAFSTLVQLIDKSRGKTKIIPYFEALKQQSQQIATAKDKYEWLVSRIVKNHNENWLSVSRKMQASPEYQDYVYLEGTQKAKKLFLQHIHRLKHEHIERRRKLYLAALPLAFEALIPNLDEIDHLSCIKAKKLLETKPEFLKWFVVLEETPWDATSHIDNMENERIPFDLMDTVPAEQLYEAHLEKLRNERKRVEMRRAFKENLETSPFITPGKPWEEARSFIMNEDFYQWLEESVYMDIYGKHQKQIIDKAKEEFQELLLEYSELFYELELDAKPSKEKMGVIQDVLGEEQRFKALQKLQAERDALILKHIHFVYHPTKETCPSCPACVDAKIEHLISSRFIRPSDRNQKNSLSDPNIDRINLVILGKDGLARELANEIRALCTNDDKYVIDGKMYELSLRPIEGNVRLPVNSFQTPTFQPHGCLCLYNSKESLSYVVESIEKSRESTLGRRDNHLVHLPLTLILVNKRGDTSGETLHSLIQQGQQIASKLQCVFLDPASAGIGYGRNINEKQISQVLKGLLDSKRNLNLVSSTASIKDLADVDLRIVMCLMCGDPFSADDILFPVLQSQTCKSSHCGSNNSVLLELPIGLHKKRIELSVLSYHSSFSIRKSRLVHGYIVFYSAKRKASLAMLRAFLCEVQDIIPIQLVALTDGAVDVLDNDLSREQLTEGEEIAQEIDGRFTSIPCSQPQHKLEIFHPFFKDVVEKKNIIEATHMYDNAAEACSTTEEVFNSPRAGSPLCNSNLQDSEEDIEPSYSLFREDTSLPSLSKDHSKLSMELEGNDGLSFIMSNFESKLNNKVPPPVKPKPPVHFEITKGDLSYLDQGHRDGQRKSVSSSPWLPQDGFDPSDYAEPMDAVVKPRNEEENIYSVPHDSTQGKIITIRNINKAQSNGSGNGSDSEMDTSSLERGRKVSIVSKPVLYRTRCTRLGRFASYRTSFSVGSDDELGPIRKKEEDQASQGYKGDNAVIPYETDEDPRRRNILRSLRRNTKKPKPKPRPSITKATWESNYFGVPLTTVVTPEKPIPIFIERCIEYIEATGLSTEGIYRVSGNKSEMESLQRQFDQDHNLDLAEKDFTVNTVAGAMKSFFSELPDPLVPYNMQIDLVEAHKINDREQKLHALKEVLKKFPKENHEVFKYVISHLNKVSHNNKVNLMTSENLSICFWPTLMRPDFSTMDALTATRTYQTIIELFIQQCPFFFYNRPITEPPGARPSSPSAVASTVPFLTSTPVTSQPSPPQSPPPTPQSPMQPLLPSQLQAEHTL
UniProt Q9NTJ3, whole entry, looked up: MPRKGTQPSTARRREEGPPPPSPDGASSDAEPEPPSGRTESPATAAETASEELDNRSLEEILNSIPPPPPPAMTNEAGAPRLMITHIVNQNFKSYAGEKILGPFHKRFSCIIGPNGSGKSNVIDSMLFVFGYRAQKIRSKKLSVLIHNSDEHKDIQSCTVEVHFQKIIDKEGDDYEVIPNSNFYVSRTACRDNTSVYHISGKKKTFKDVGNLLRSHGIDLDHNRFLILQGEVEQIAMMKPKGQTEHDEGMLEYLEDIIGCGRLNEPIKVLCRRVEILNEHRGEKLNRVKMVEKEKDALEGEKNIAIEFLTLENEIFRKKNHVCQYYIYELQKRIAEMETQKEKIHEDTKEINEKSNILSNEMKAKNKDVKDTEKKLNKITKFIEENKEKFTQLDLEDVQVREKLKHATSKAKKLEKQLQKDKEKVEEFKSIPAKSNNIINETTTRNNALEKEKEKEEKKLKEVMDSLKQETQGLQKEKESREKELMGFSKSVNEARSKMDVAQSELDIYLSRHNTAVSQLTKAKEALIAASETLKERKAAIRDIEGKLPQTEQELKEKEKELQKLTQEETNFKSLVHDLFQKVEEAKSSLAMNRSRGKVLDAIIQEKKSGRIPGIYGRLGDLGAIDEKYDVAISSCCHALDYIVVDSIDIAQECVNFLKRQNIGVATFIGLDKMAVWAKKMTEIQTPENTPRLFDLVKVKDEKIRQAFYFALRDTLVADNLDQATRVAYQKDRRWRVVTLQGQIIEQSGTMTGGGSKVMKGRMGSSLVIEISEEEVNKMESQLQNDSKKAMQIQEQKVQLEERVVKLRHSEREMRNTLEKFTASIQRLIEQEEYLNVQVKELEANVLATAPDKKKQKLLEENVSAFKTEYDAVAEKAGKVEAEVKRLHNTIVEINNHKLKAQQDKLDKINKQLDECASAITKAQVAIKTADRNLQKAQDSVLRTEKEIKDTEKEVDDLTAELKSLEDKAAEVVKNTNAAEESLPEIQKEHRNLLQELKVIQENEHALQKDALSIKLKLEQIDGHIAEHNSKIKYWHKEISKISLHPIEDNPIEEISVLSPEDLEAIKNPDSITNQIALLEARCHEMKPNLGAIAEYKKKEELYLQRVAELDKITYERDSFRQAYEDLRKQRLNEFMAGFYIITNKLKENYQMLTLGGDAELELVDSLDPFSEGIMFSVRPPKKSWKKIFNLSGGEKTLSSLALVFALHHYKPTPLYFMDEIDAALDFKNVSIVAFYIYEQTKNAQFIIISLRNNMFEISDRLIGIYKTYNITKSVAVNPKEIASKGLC

Compound: CC[C@@H](C)Nc1cc(C(=O)N[C@H]2C[C@H]3CC[C@@H](C2)N3c2ccc(C(=O)C3CC3)cn2)c(C)cc1C(N)=O [XL888]
Assay: phosphopeptide melting temperature shift (XL888 minus DMSO); higher = stabilised by drug treatment
Settings: 100 µM; treatment time 2 h; layout: intact cells; SK-Mel 28
Protocol: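 Phospho-TPP in intact SK-Mel 28 cells treated with 100 uM XL888 or DMSO for 2 h, heated at 10 temperatures (37-67 C) for 3 min, soluble fraction TMT10plex-labelled and TiO2 phospho-enriched. Melting curves were fitted per phosphopeptide; the value is the melting point difference (drug minus vehicle) in each of two biological replicates.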

Target	phosphopeptide melting temperature shift
UniProt Q9BQI3-2_phosphosite_257 (phosphosite position: 257)	2.01 °C
UniProt Q9BSJ6-2_phosphosite_16 (phosphosite position: 16)	0.977 °C
UniProt Q9BSQ5-4_phosphosite_326 (phosphosite position: 326)	0.542 °C
UniProt Q9BTA9-5_phosphosite_408 (phosphosite position: 408)	4.74 °C
UniProt Q9BUB5-3_phosphosite_180 (phosphosite position: 180)	0.352 ± 0.44 °C
UniProt Q9BUB5-3_phosphosite_185 (phosphosite position: 185)	0.294 ± 0.79 °C
UniProt Q9BUH6_phosphosite_148 (phosphosite position: 148)	-1.24 °C
UniProt Q9BUJ2-3_phosphosite_151 (phosphosite position: 151)	-0.327 ± 0.13 °C
UniProt Q9BUK6-5_phosphosite_317 (phosphosite position: 317)	-0.419 °C
UniProt Q9BUR4_phosphosite_85 (phosphosite position: 85)	-0.00358 °C
UniProt Q9BV36_phosphosite_201 (phosphosite position: 201)	-3.71 ± 0.28 °C
UniProt Q9BV36_phosphosite_313 (phosphosite position: 313)	0.966 °C
UniProt Q9BVJ6-3_phosphosite_353 (phosphosite position: 353)	-4.32 °C
UniProt Q9BVJ6-3_phosphosite_355 (phosphosite position: 355)	-4.32 °C
UniProt Q9BVS4-2_phosphosite_337 (phosphosite position: 337)	0.0549 ± 0.26 °C
UniProt Q9BW85_phosphosite_211 (phosphosite position: 211)	-0.83 ± 2.1 °C
UniProt Q9BW85_phosphosite_213 (phosphosite position: 213)	0.899 ± 0.23 °C
UniProt Q9BXP5-5_phosphosite_67 (phosphosite position: 67)	0.255 ± 0.34 °C
UniProt Q9BXP5-5_phosphosite_74 (phosphosite position: 74)	0.247 ± 0.56 °C
UniProt Q9BXW6-4_phosphosite_117 (phosphosite position: 117)	2.02 °C
UniProt Q9BYE7-3_phosphosite_115 (phosphosite position: 115)	2.84 °C
UniProt Q9BYW2-3_phosphosite_754 (phosphosite position: 754)	-0.0306 °C
UniProt Q9BZ23-3_phosphosite_66 (phosphosite position: 66)	0.75 °C
UniProt Q9BZQ8_phosphosite_582 (phosphosite position: 582)	0.451 ± 1.6 °C
UniProt Q9BZQ8_phosphosite_602 (phosphosite position: 602)	-0.955 ± 0.31 °C
UniProt Q9BZQ8_phosphosite_622 (phosphosite position: 622)	1.61 ± 1.1 °C

Target	phosphopeptide melting temperature shift
UniProt Q9H0D6-2_phosphosite_423 (phosphosite position: 423)	-1.3 ± 4.1 °C
UniProt Q9H0D6-2_phosphosite_425 (phosphosite position: 425)	1.8 °C
UniProt Q9H0E9-3_phosphosite_124 (phosphosite position: 124)	1.3 ± 4.1 °C
UniProt Q9H0E9-3_phosphosite_128 (phosphosite position: 128)	0.662 ± 3.2 °C
UniProt Q9H0G5_phosphosite_275 (phosphosite position: 275)	4.33 °C
UniProt Q9H1B7_phosphosite_69 (phosphosite position: 69)	2.42 °C
UniProt Q9H1H9-3_phosphosite_1481 (phosphosite position: 1481)	-0.449 °C
UniProt Q9H2G2-2_phosphosite_189 (phosphosite position: 189)	3.86 °C
UniProt Q9H2I8_phosphosite_153 (phosphosite position: 153)	-1.83 °C
UniProt Q9H3Q1-2_phosphosite_222 (phosphosite position: 222)	3.77 °C
UniProt Q9H4A3-2_phosphosite_1782 (phosphosite position: 1782)	0.614 ± 0.26 °C
UniProt Q9H4A3-2_phosphosite_1785 (phosphosite position: 1785)	0.414 ± 0.42 °C
UniProt Q9H4G0-3_phosphosite_541 (phosphosite position: 541)	2.89 °C
UniProt Q9H4L5-5_phosphosite_251 (phosphosite position: 251)	2.48 ± 1.4 °C
UniProt Q9H4L5-5_phosphosite_265 (phosphosite position: 265)	2.12 °C
UniProt Q9H4L5-5_phosphosite_410 (phosphosite position: 410)	1.16 ± 2.9 °C
UniProt Q9H6R7_phosphosite_468 (phosphosite position: 468)	-1.1 °C
UniProt Q9H6T3-2_phosphosite_116 (phosphosite position: 116)	-0.995 °C
UniProt Q9H6T3-2_phosphosite_119 (phosphosite position: 119)	4.57 ± 3.4 °C
UniProt Q9H6T3-2_phosphosite_121 (phosphosite position: 121)	4.72 ± 3.4 °C
UniProt Q9H6U6-7_phosphosite_555 (phosphosite position: 555)	-1.63 °C
UniProt Q9H6Z4-3_phosphosite_32 (phosphosite position: 32)	0.465 °C
UniProt Q9H6Z4-3_phosphosite_33 (phosphosite position: 33)	-1.37 ± 0.061 °C
UniProt Q9H7C4-2_phosphosite_325 (phosphosite position: 325)	-1.65 °C
UniProt Q9H410-4_phosphosite_42 (phosphosite position: 42)	0.996 °C
UniProt Q9H410-4_phosphosite_65 (phosphosite position: 65)	3.81 °C

Retrieved one by one from the list above (four):
Target	phosphopeptide melting temperature shift
UniProt Q9H410-4_phosphosite_42 (phosphosite position: 42)	0.996 °C
UniProt Q9H4L5-5_phosphosite_265 (phosphosite position: 265)	2.12 °C
UniProt Q9H4G0-3_phosphosite_541 (phosphosite position: 541)	2.89 °C
UniProt Q9H6R7_phosphosite_468 (phosphosite position: 468)	-1.1 °C

Remaining list, next part.

Target	phosphopeptide melting temperature shift
UniProt Q9NPE2-3_phosphosite_41 (phosphosite position: 41)	-2.23 °C
UniProt Q9NPQ8-4_phosphosite_435 (phosphosite position: 435)	0.492 °C
UniProt Q9NQ55-2_phosphosite_238 (phosphosite position: 238)	-1.85 ± 1.7 °C
UniProt Q9NQ55-2_phosphosite_240 (phosphosite position: 240)	-0.212 ± 0.16 °C
UniProt Q9NQC3-5_phosphosite_181 (phosphosite position: 181)	1.44 ± 0.47 °C
UniProt Q9NQC3-5_phosphosite_188 (phosphosite position: 188)	0.174 °C
UniProt Q9NR12-2_phosphosite_180 (phosphosite position: 180)	0.177 °C
UniProt Q9NR30-2_phosphosite_21 (phosphosite position: 21)	0.958 ± 0.23 °C
UniProt Q9NR30-2_phosphosite_53 (phosphosite position: 53)	0.909 °C
UniProt Q9NRA8-2_phosphosite_74 (phosphosite position: 74)	0.427 ± 0.12 °C
UniProt Q9NRA8-2_phosphosite_77 (phosphosite position: 77)	0.319 ± 0.27 °C
UniProt Q9NRA8-2_phosphosite_78 (phosphosite position: 78)	-0.178 ± 0.97 °C
UniProt Q9NRA8-2_phosphosite_389 (phosphosite position: 389)	1.49 °C
UniProt Q9NRL2-2_phosphosite_699 (phosphosite position: 699)	0.501 °C
UniProt Q9NRY4_phosphosite_980 (phosphosite position: 980)	0.985 ± 0.26 °C
UniProt Q9NS87-4_phosphosite_568 (phosphosite position: 568)	-0.25 °C
UniProt Q9NTI5-2_phosphosite_1283 (phosphosite position: 1283)	0.498 ± 0.099 °C
UniProt Q9NTJ3-2_phosphosite_22 (phosphosite position: 22)	-0.192 ± 0.37 °C
UniProt Q9NTJ3-2_phosphosite_28 (phosphosite position: 28)	-1.48 ± 0.69 °C
UniProt Q9NVN3-4_phosphosite_228 (phosphosite position: 228)	0.72 °C
UniProt Q9NVN3-4_phosphosite_233 (phosphosite position: 233)	0.72 °C
UniProt Q9NVS9-2_phosphosite_146 (phosphosite position: 146)	0.485 °C
UniProt Q9NVU0-3_phosphosite_503 (phosphosite position: 503)	-1.95 °C
UniProt Q9NVU7-2_phosphosite_488 (phosphosite position: 488)	0.717 ± 1.8 °C
UniProt Q9NWK9-2_phosphosite_25 (phosphosite position: 25)	-0.346 °C
